# From the supplement of paper PMC4604168 (melanoma cell lines)
# This is one part of the list. Single values are uncertain, as repeats are few or missing.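 The apoptosis fraction was the count of cleaved-PARP antibody-stained nuclei relative to all DNA-stained nuclei, imaged in 1,536-well plates. Screening doses were set so most cells survived, and baseline and induced cleaved-PARP levels vary greatly across cell lines.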
# What was measured:
# Test in all cases: cleaved PARP positive nuclei fraction relative to DMSO control; melanoma cells; higher = more apoptosis
# Details in all cases: library dose: low library concentration; 72 h
# MZ2-MEL = system: MZ2-MEL
# MeWo = system: MeWo
# RPMI7951 = system: RPMI7951
# RVH-421 = system: RVH-421
# SkMel28 = system: SkMel28
# SkMel2 = system: SkMel2
# SkMel30 = system: SkMel30
# UACC62 = system: UACC62
# WM115 = system: WM115
# WM1716 = system: WM1716
# WM1745 = system: WM1745
# WM3526 = system: WM3526
# WM3619 = system: WM3619
# WM451Lu = system: WM451Lu
Compound,cleaved PARP positive nuclei fraction (MZ2-MEL) [%],cleaved PARP positive nuclei fraction (MeWo) [%],cleaved PARP positive nuclei fraction (RPMI7951) [%],cleaved PARP positive nuclei fraction (RVH-421) [%],cleaved PARP positive nuclei fraction (SkMel28) [%],cleaved PARP positive nuclei fraction (SkMel2) [%],cleaved PARP positive nuclei fraction (SkMel30) [%],cleaved PARP positive nuclei fraction (UACC62) [%],cleaved PARP positive nuclei fraction (WM115) [%],cleaved PARP positive nuclei fraction (WM1716) [%],cleaved PARP positive nuclei fraction (WM1745) [%],cleaved PARP positive nuclei fraction (WM3526) [%],cleaved PARP positive nuclei fraction (WM3619) [%],cleaved PARP positive nuclei fraction (WM451Lu) [%]
"COc1cc([C@@H]2c3cc4c(cc3[C@@H](O[C@@H]3O[C@@H]5CO[C@@H](C)O[C@H]5[C@H](O)[C@H]3O)[C@H]3COC(=O)[C@H]23)OCO4)cc(OC)c1O [etoposide] + NC1(c2ccc(-c3nc4ccn5c(=O)[nH]nc5c4cc3-c3ccccc3)cc2)CCC1 [MK2206] (first compound 0.02 µM, partner dose 0.4 µM)",117,59.2,99.4,214,115,244,207,66.3,233,76.3,152,52.5,79.8,144
"O=C(Nc1cc(C(F)(F)F)cc(C(F)(F)F)c1)c1cc(Cl)ccc1O + Cn1cnc2c(F)c(Nc3ccc(Br)cc3Cl)c(C(=O)NOCCO)cc21 [selumetinib] (first compound 0.016 µM, partner dose 0.015 µM)",107,185,96.3,171,148,109,127,129,66.7,85.2,83.9,67.9,81.2,270
"Cc1ccc(Nc2nccc(N(C)c3ccc4c(C)n(C)nc4c3)n2)cc1S(N)(=O)=O [Pazopanib] + Nc1ncn([C@H]2C[C@H](O)[C@@H](CO)O2)c(=O)n1 [decitabine] (first compound 0.4 µM, partner dose 0.1 µM)",180,63.2,135,43.1,92.9,49.1,36.9,158,41,49.2,90.5,32.6,101,121
"O=C(/C=C/c1cccnc1)NCCCCC1CCN(C(=O)c2ccccc2)CC1 + C[C@@H](Oc1cc(-c2cnn(C3CCNCC3)c2)cnc1N)c1c(Cl)ccc(F)c1Cl [Crizotinib] (first compound 0.01 µM, partner dose 0.2 µM)",525,55.6,62.9,100,21.1,883,17,36.1,68.3,125,106,28,102,30.3
"O=C(Nc1cc(C(F)(F)F)cc(C(F)(F)F)c1)c1cc(Cl)ccc1O + CCN(CC)CCNC(=O)c1c(C)[nH]c(/C=C2\C(=O)Nc3ccc(F)cc32)c1C [sunitinib] (first compound 0.016 µM, partner dose 0.4 µM)",122,88.3,91.7,86.3,132,65.8,20.3,141,37.4,149,102,117,91.1,192
"N#CC[C@H](C1CCCC1)n1cc(-c2ncnc3[nH]ccc23)cn1 [ruxolitinib] + Nc1nc(F)nc2c1ncn2[C@@H]1O[C@H](CO)[C@@H](O)[C@@H]1O [fludarabine] (first compound 1 µM, partner dose 0.2 µM)",225,719,60.2,125,41.4,1040,709,131,136,68.1,85.1,437,101,50.5
"Cc1cc(Nc2cc(N3CCN(C)CC3)nc(Sc3ccc(NC(=O)C4CC4)cc3)n2)n[nH]1 [Tozasertib] + Nc1ncn([C@H]2C[C@H](O)[C@@H](CO)O2)c(=O)n1 [decitabine] (first compound 0.006 µM, partner dose 0.1 µM)",92.5,319,132,112,88.7,126,123,174,294,95.7,124,148,86.2,37.2
"N#CC[C@H](C1CCCC1)n1cc(-c2ncnc3[nH]ccc23)cn1 [ruxolitinib] + Cc1ccc(Nc2nccc(N(C)c3ccc4c(C)n(C)nc4c3)n2)cc1S(N)(=O)=O [Pazopanib] (first compound 1 µM, partner dose 0.4 µM)",94.9,138,66.7,161,42.6,293,94.9,172,95.9,78.3,126,158,77.6,47
"O=C(Nc1cc(C(F)(F)F)cc(C(F)(F)F)c1)c1cc(Cl)ccc1O + Cc1ccc(Nc2nccc(N(C)c3ccc4c(C)n(C)nc4c3)n2)cc1S(N)(=O)=O [Pazopanib] (first compound 0.016 µM, partner dose 0.4 µM)",25,32.5,96.7,52.1,79.8,108,41.7,102,55.4,488,97.4,74.3,82.5,25.1
"O=c1[nH]nc(Sc2ncc([N+](=O)[O-])s2)n1-c1ccc2c(c1)OCCO2 + CNC(=O)c1cc(Oc2ccc(NC(=O)Nc3ccc(Cl)c(C(F)(F)F)c3)cc2)ccn1 [sorafenib] (first compound 0.2 µM, partner dose 0.4 µM)",72,57.7,108,44.3,38.6,93.2,67.2,68.3,85.7,58.3,91.2,31.4,87.8,58
